In patent US20200024362A1:
These are yes or no findings as the source states them, for the method shown. Some results given as binding are weak or reduced against the parent protein; the word gives no strength.

Chains of the proteins cited; added tags and fusions are not shown. Lines headed by an entry give the natural chain unless they say otherwise; changes in a name come on top.
UniProt P03951: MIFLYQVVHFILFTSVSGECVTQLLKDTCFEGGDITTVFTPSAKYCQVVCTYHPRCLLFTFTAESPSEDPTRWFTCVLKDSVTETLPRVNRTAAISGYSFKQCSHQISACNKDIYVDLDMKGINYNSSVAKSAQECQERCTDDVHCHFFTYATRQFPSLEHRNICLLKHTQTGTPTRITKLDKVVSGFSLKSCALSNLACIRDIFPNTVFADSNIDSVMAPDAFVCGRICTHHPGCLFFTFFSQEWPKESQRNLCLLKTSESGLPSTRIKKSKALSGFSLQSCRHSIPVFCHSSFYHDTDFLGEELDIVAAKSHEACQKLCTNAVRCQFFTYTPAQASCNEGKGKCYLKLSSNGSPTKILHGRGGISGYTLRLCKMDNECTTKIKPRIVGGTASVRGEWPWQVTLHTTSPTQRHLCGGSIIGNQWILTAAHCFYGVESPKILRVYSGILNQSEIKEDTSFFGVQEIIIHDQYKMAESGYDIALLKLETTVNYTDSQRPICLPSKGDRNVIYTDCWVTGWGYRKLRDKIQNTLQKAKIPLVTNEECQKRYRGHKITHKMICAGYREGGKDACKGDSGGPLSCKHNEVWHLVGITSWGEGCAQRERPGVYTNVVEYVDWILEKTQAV

Experiments:
[1] = target: human coagulation factor XI (human) (UniProt P03951); experiment: SPR (Biacore T200), antibody captured on anti-human IgG CM5 chip, FXI flowed
[2] = target: wild-type FXI with 6xHis tag (human) (UniProt P03951); experiment: SPR, His-tagged FXI immobilized, antibodies 5 ug/ml injected successively
[3] = target: wild-type FXI with 6xHis tag (human) (UniProt P03951); experiment: SPR (Biacore T200), FXI on the chip, antibodies 5 µg/mL injected one after the other at 30 µl/minute
[4] = target: human coagulation factor XI (human) (UniProt P03951); experiment: SPR, antibody captured, FXI flowed
[5] = target: human coagulation factor XI (human) (UniProt P03951); experiment: SPR (Biacore T200), antibody captured on anti-human IgG CM5 chip, FXI flowed, 1:1 fit
[6] = target: human coagulation factor XI (human) (UniProt P03951); experiment: pull-down of biotinylated antibody from human plasma with streptavidin beads, Western blot with mouse anti-human FXI IgG
[7] = target: human coagulation factor XI (human) (UniProt P03951); experiment: pull-down with biotinylated antibody from human plasma, Western blot for FXI
[8] = target: human coagulation factor XI (human) (UniProt P03951); experiment: SPR, antibody captured, wild type FXI flowed at one concentration
[9] = target: wild-type FXI with 6xHis tag (human) (UniProt P03951); experiment: SPR (Biacore T200), FXI on the chip, h-42A5 5 µg/mL injected after h-19F6 and washing

Measured: binding

B1: h-19F6 (antibody, V domains shown)
VH: EVQLVESGGGLVQPGRSLRLSCTASGFTFSKYAMSWVRQAPGKGLEWVSAINYDGSTTYYADSVKGRFTLSRDNSKNTLYLQMNSLRAEDTAVYYCARHPFNNFGIWFAYWGQGTLVTVS
VL: QFQLTQPSSVSASVGDRVTITCERSSGDIGDSYVSWYQQKPGQPPKNVIYADDQRPSGVPDRFSGSIDGSGNSASLTISSLQAEDAADYFCQSYDSNIDFNPVFGGGTKLEVK
not listed: [9]
binds: all other assays above

B2: h-42A5 (antibody, V domains shown)
VH: QVTLKESGPVLVKPTETLTLTCTVSGFSLTSYHLHWIRQPPGKALEWMGLMWRDGDTSYNSRLKSRLTISRDTSKSQVVLTMTNMDPVDTATYYCARGMTLATPFLYWGQGTLVTVSS
VL: DVVLTQTPLSLSVTPGQPASISCRSSQSLESSDGNTYLEWYLQKPGQSPQLLIYGVSNRFSGVPDRFSGSGSGTDFTLKISRVEAEDLGVYYCFQATRDPFTFGQGTKLEIKR
not listed: [3]
binds: all other assays above

B3: h-34F8 (antibody, V domains shown)
VH: QVQLQESGPGLVKPSETLSLTCTVSGFSLTTYHVHWVRQPPGKGLEWIGIMWRDGDTYYNSSLKSRVTISRDTSKNQVSLKLSSVTAADTAVYFCARGGTLTTPFTYWGQGTLVTVSS
VL: DVVLTQTPLSLPVTPGEPASISCRSSQSLESRDGNTYLEWYLQKPGQSPQVLLYGVSNRLSGVPDRFSGSGSGTDFTLKISRVEAEDVGVYYCFQATHGPFTFGQGTKLEIKR
binds: [4] | [5]
